Test results reported in PMC7819943, “Rice protein-binding microarrays: a tool to detect cis-acting elements near promoter regions in rice”.
The list shows a part of the results.

target: T1, OsSMF1 (Oryza sativa, UniProt Q6ZLB0 1-436); assay: protein-binding microarray (RPBM); PBS, 2% BSA, 51.3 ng/ul salmon testes DNA, 50 uM zinc acetate, 200 nM TF, 25 C, 1 h; high values mean tight binding; details: protein: recombinant; tags: N-terminal polyhistidine and DsRed monomer fusion (pET32a); chain copies: 2; label: CyDye5-dUTP incorporated in the synthesized complementary strand; 3' TTTTT single-stranded linker to array surface; dsDNA, one strand shown
T1 sequence: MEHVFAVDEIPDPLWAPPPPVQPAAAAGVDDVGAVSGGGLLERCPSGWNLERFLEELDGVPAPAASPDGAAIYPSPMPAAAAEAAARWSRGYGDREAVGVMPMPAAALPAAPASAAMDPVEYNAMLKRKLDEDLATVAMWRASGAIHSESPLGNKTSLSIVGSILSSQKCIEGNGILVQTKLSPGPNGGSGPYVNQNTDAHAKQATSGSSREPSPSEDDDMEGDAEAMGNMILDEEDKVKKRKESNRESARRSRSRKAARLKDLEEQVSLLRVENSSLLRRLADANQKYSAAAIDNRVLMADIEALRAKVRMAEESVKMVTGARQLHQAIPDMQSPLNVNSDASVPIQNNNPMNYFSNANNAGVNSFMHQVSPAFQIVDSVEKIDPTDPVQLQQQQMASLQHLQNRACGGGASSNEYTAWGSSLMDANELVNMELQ
In short: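 The binding signal is fluorescence intensity per feature, in arbitrary units, read on an Axon 4000B scanner. Polyhistidine- and DsRed-tagged transcription factors (N-terminal fusions) from E. coli BL21-CodonPlus were purified on Ni–NTA and applied at 200 nM for 1 h at 25 °C to a double-stranded, BSA-blocked custom Agilent array in buffer with 50 µM zinc acetate.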

| Sequence | binding signal |
| --- | --- |
| TACTACTCTCCTTTCTTTACGTGGTAGCTGGGCTGGGCTGCGGAGTCACCTAGTGCAG | 3450 fluorescence intensity (a.u.) |
| AATGCCCACGCCACGACCGTCGCCCCTCTCCATGTCAGTCCGGAGTCACCTAGTGCAG | 5310 fluorescence intensity (a.u.) |
| GTTTTGCGTGCGTGGAGTATTTGTTGAGCCTTGCTACCATCGGAGTCACCTAGTGCAG | 5550 fluorescence intensity (a.u.) |
| TATTGACTATTTTATTATTTGATGTCATTTAAGGTTCTAACGGAGTCACCTAGTGCAG | 3180 fluorescence intensity (a.u.) |
| AGCAGTCTAGCACTGTCCACGCGGGCCCCACGCCGCTCTCCGGAGTCACCTAGTGCAG | 4610 fluorescence intensity (a.u.) |
| GATAACCGTAACTAACCGGCTTGGTCAGCAAGCCAAAGTGCGGAGTCACCTAGTGCAG | 6310 fluorescence intensity (a.u.) |
| AAATGATGTTGATACTTGATTGGTGATATGGCACTAGTGTCGGAGTCACCTAGTGCAG | 3860 fluorescence intensity (a.u.) |
| TCTCTCCTATAGTGGTCATCAATTGTTTGTTTTGAGTAAACGGAGTCACCTAGTGCAG | 3590 fluorescence intensity (a.u.) |
| CACGTACTAACTGGCGGGGTTGTGTCATCTTGTCTATGGTCGGAGTCACCTAGTGCAG | 4850 fluorescence intensity (a.u.) |
| GACGGTGGCGGCGGGGCCTTGTCTCACCTCCCCTTTGCGCCGGAGTCACCTAGTGCAG | 27500 fluorescence intensity (a.u.) |
| CGAGGGCCGCGGTGGCCACGGTGGCCGCCGCGCTGCTCGGCGGAGTCACCTAGTGCAG | 4970 fluorescence intensity (a.u.) |
| AGCCAATACGGTACACGTGGCATGACCATCACCCTGCCTCCGGAGTCACCTAGTGCAG | 26500 fluorescence intensity (a.u.) |
| TATGCAGATATGCACGTCAGCTATCGCGGTTGTCTTTCTACGGAGTCACCTAGTGCAG | 6230 fluorescence intensity (a.u.) |
| CTTTGCGGTGGCTGCCTTGCTCCGCGTCGAGAAGTACCCACGGAGTCACCTAGTGCAG | 3440 fluorescence intensity (a.u.) |
| CCATGTCCATGTGTCCGTGATTAGTCCATACAGTCGTCTGCGGAGTCACCTAGTGCAG | 3990 fluorescence intensity (a.u.) |
| CTACTTAAACGCCACGTTACTTGTCACTGCTCTACCTGCACGGAGTCACCTAGTGCAG | 6500 fluorescence intensity (a.u.) |
| ATAAAATATTGAACTGCTAATGATAATATAATCGAGTCAACGGAGTCACCTAGTGCAG | 4670 fluorescence intensity (a.u.) |
| GATCTCCGGTGGGCCGTGGGGCGCCGCGTGGCGGAGAGAGCGGAGTCACCTAGTGCAG | 3320 fluorescence intensity (a.u.) |
| GAAATTGGAGATGATGTGACTGAAAAGTTGTGTGTGTATGCGGAGTCACCTAGTGCAG | 3450 fluorescence intensity (a.u.) |
| TTGGTACTGATACTGTACGTGTCAACGAGTTGAGACCCGCCGGAGTCACCTAGTGCAG | 6740 fluorescence intensity (a.u.) |
| CTCCTAATTAGCAATTTGCTTACTCTTAATCTCCCTCACTCGGAGTCACCTAGTGCAG | 27500 fluorescence intensity (a.u.) |

| Sequence | binding signal |
| --- | --- |
| GCCGTTCGCCACCACGCCTACTTCGCCGGCTGCCCTCGCCCGGAGTCACCTAGTGCAG | 3470 fluorescence intensity (a.u.) |
| CGCGAGCTACGTGCTTACGTTGGCTCTGTCGATTATTCCACGGAGTCACCTAGTGCAG | 5490 fluorescence intensity (a.u.) |
| CGCTGGCTTCTGTTGTGCTACTTAATTACGTGTTTAGTGCCGGAGTCACCTAGTGCAG | 5300 fluorescence intensity (a.u.) |
| AAAGGGTAGTACACACACTGCCGCCTCAGCGGGGAGATCTCGGAGTCACCTAGTGCAG | 3310 fluorescence intensity (a.u.) |
| GATGCCATCTAATTTTAAATGATGATGTGGAGAAGAGAGTCGGAGTCACCTAGTGCAG | 6180 fluorescence intensity (a.u.) |
| AAAGCTGCTGATGTTGGTGCTGACCTTGTTGGGAAGGTGGCGGAGTCACCTAGTGCAG | 3570 fluorescence intensity (a.u.) |
| CTTACTCTCTCCGTCTCTAAATATTTGACGCCGTTGACTTCGGAGTCACCTAGTGCAG | 33600 fluorescence intensity (a.u.) |
| GCCCAATCGCCGCCCGCCACGTGCCCCTTCCCGGATACCGCGGAGTCACCTAGTGCAG | 9810 fluorescence intensity (a.u.) |
| TGGTCCAGTCATTCATCTATGCACGTACATTAACTCCTTCCGGAGTCACCTAGTGCAG | 5460 fluorescence intensity (a.u.) |
| TGGCGTGTAATACGAAAGGAAATCGTGACATGGGCAGATCCGGAGTCACCTAGTGCAG | 4580 fluorescence intensity (a.u.) |
| GGGGTATGCAATCATGCGTATGCATGTCAGCATGTGTCTGCGGAGTCACCTAGTGCAG | 6010 fluorescence intensity (a.u.) |
| GGCACCACGTCCCGAAACGGACGGTGCTGAGTCGGCGGAGCGGAGTCACCTAGTGCAG | 5580 fluorescence intensity (a.u.) |
| TTGGATTGGACCTGACCTGGGAGGCCATGACGGAGTTGGCCGGAGTCACCTAGTGCAG | 3210 fluorescence intensity (a.u.) |
| CCCTCTCTCCTCCACGTCAACTCTTCGCCAACGTGGCTGACGGAGTCACCTAGTGCAG | 10900 fluorescence intensity (a.u.) |
| TATCTTTACCCTCTACATCATTTTGATTGTGTCATTGCCTCGGAGTCACCTAGTGCAG | 5590 fluorescence intensity (a.u.) |
| TGCTAACTGACGTCTGAGGTGGCTCGTGTGCAGTCGTCCACGGAGTCACCTAGTGCAG | 6590 fluorescence intensity (a.u.) |
| CACCTAGCTCTCACTTGCCACCTCAACTTTCACCATTAACCGGAGTCACCTAGTGCAG | 4270 fluorescence intensity (a.u.) |
| CCCTTTTCGACGGAAGACGAACTGGTGCTTTGGGGAGTTTCGGAGTCACCTAGTGCAG | 3870 fluorescence intensity (a.u.) |
| CTGCCCAACCCTCTCACCCTAGCTTAGTTTGCCACGACCTCGGAGTCACCTAGTGCAG | 3720 fluorescence intensity (a.u.) |
| CCGTGGGGTTCGCGCTGGCGTGCGTCCGCATCGCGGCGGGCGGAGTCACCTAGTGCAG | 4490 fluorescence intensity (a.u.) |
| AGTAGCTCAGCCTCAGATGAAATATCAGCAGATGAGGTCACGGAGTCACCTAGTGCAG | 6480 fluorescence intensity (a.u.) |

Reprinted at random: 2 entries already listed.

| Sequence | binding signal |
| --- | --- |
| AAATGATGTTGATACTTGATTGGTGATATGGCACTAGTGTCGGAGTCACCTAGTGCAG | 3860 fluorescence intensity (a.u.) |
| TATGCAGATATGCACGTCAGCTATCGCGGTTGTCTTTCTACGGAGTCACCTAGTGCAG | 6230 fluorescence intensity (a.u.) |
